Test results reported in paper PMC3660578.
These are yes or no findings as the source states them, for the method shown. Some results given as binding are weak or reduced against the parent protein; the word gives no strength.

Molecular target: T1, bovine Cytokeratin 18 nat (bovine) (UniProt F6S1Q0)
T1 sequence: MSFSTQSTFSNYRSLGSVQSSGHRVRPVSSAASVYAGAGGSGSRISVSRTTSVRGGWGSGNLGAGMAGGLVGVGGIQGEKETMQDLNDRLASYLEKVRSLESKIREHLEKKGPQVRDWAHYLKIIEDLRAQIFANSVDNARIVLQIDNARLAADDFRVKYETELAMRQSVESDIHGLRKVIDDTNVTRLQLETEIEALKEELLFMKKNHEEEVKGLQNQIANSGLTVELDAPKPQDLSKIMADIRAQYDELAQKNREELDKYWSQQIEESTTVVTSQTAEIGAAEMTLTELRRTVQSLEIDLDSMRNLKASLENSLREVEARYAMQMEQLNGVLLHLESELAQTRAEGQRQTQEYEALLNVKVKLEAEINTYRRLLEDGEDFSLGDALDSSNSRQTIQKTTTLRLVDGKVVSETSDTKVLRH
Test: far-Western, overlay or dot blot; proteins separated by SDS-PAGE and transferred to PVDF, blocked with 0.2% Tween 20 in PBS; incubated with recombinant or native protein at 1–2 µg per ml for 30 min in 10 mM phosphate buffer pH 7.4, 0.05% Triton X-100, room temperature; detected with monoclonal antibody, HRP secondary antibody and ECL; both purified

binding: binds
B1: TIP47-rec (protein, UniProt O60664 1-434)
chain: MSADGAEADGSTQVTVEEPVQQPSVVDRVASMPLISSTCDMVSAAYASTKESYPHIKTVCDAAEKGVRTLTAAAVSGAQPILSKLEPQIASASEYAHRGLDKLEENLPILQQPTEKVLADTKELVSSKVSGAQEMVSSAKDTVATQLSEAVDATRGAVQSGVDKTKSVVTGGVQSVMGSRLGQMVLSGVDTVLGKSEEWADNHLPLTDAELARIATSLDGFDVASVQQQRQEQSYFVRLGSLSERLRQHAYEHSLGKLRATKQRAQEALLQLSQVLSLMETVKQGVDQKLVEGQEKLHQMWLSWNQKQLQGPEKEPPKPEQVESRALTMFRDIAQQLQATCTSLGSSIQGLPTNVKDQVQQARRQVEDLQATFSSIHSFQDLSSSILAQSRERVASAREALDHMVEYVAQNTPVTWLVGPFAPGITEKAPEEKK
